Measured values taken from patent US20220313831A1 (BAYLOR COLLEGE OF MEDICINE, published 2022).
These are yes or no findings as the source states them, for the method shown. A result given as binding can be weak or reduced; the word gives no strength. Where a sequence is shown, tags or fusion partners need not be part of it.

Assays:
[1] = target: T1, IgG1 Fc linked recombinant human ALCAM (human) (UniProt Q13740); assay: flow cytometry with ALCAM-fc (FIG. 6)
T1 sequence (looked up): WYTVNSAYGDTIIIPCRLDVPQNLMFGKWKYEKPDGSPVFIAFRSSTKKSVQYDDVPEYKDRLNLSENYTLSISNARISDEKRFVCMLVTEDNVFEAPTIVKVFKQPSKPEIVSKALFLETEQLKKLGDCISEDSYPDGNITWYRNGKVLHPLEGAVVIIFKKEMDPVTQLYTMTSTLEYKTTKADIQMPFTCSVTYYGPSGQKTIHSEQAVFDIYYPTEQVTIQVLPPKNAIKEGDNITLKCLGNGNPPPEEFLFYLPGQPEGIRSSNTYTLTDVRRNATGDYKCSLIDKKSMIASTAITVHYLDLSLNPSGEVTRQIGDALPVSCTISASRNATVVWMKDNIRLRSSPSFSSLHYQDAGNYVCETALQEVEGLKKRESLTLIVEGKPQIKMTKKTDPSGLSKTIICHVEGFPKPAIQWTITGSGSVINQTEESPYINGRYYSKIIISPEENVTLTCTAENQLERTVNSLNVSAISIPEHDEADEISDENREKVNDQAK

[2] = target: T1, IgG1 Fc linked recombinant human ALCAM (human); assay: flow cytometry; transduced T cells stained with ALCAM-Fc and anti-human IgG1 Fc FITC

binding [1] | binding [2] | Substance
binds | binds | Monomer 1xD3 CD6 with signalling domain (1-D3) (receptor)
binds | binds | Monomer 1xD3 CD6 truncated/mutated (1-D3Δ) (receptor)
